Test results reported in paper doi:10.1101/2025.04.28.650959.
These are yes or no findings as the source states them, for the method shown. Binding seen in cells or lysates may run through a third protein. Some entries that bind do so weakly or less than the wild type.

Chains of the proteins cited; added tags and fusions are not shown.
UniProt Q14258, whole entry: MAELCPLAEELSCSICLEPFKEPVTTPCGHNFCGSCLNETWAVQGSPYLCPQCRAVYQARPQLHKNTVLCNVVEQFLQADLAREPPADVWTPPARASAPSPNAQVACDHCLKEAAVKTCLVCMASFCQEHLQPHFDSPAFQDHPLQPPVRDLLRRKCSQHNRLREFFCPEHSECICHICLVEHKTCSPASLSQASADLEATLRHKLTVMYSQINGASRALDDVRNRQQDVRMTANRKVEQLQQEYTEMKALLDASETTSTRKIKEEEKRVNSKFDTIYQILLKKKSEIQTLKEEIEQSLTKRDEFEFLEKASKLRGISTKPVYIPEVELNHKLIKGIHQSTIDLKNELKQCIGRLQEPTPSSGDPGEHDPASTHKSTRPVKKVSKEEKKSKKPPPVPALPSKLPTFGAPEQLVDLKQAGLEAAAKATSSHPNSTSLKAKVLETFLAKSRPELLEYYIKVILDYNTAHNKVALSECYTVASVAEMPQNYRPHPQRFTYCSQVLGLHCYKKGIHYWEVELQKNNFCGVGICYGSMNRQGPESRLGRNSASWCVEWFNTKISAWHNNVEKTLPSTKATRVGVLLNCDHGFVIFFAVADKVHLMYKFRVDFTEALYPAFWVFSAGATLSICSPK

Tests used:
[1] = target: TRIM25 (E3 ubiquitin ligase), endogenous (human (endogenous in HEK293T and HeLa)) (UniProt Q14258); experiment: co-IP
[2] = target: ZAP-short (ZAP-S), endogenous in HEK293T ZAP-L knockout cells (human (endogenous in HEK293T)), Q7Z2W4; experiment: co-IP; details: remark: other sources report otherwise

| Binder | binding [1] | binding [2] |
| --- | --- | --- |
| TUT7 (terminal uridylyltransferase 7), endogenous (protein, UniProt Q5VYS8 1-1495) MGDTAKPYFVKRTKDRGTMDDDDFRRGHPQQDYLIIDDHAKGHGSKMEKGLQKKKITPGNYGNTPRKGPCAVSSNPYAFKNPIYSQPAWMNDSHKDQSKRWLSDEHTGNSDNWREFKPGPRIPVINRQRKDSFQENEDGYRWQDTRGCRTVRRLFHKDLTSLETTSEMEAGSPENKKQRSRPRKPRKTRNEENEQDGDLEGPVIDESVLSTKELLGLQQAEERLKRDCIDRLKRRPRNYPTAKYTCRLCDVLIESIAFAHKHIKEKRHKKNIKEKQEEELLTTLPPPTPSQINAVGIAIDKVVQEFGLHNENLEQRLEIKRIMENVFQHKLPDCSLRLYGSSCSRLGFKNSDVNIDIQFPAIMSQPDVLLLVQECLKNSDSFIDVDADFHARVPVVVCREKQSGLLCKVSAGNENACLTTKHLTALGKLEPKLVPLVIAFRYWAKLCSIDRPEEGGLPPYVFALMAIFFLQQRKEPLLPVYLGSWIEGFSLSKLGNFNLQDIEKDVVIWEHTDSAAGDTGITKEEAPRETPIKRGQVSLILDVKHQPSVPVGQLWVELLRFYALEFNLADLVISIRVKELVSRELKDWPKKRIAIEDPYSVKRNVARTLNSQPVFEYILHCLRTTYKYFALPHKITKSSLLKPLNAITCISEHSKEVINHHPDVQTKDDKLKNSVLAQGPGATSSAANTCKVQPLTLKETAESFGSPPKEEMGNEHISVHPENSDCIQADVNSDDYKGDKVYHPETGRKNEKEKVGRKGKHLLTVDQKRGEHVVCGSTRNNESESTLDLEGFQNPTAKECEGLATLDNKADLDGESTEGTEELEDSLNHFTHSVQGQTSEMIPSDEEEEDDEEEEEEEEPRLTINQREDEDGMANEDELDNTYTGSGDEDALSEEDDELGEAAKYEDVKECGKHVERALLVELNKISLKEENVCEEKNSPVDQSDFFYEFSKLIFTKGKSPTVVCSLCKREGHLKKDCPEDFKRIQLEPLPPLTPKFLNILDQVCIQCYKDFSPTIIEDQAREHIRQNLESFIRQDFPGTKLSLFGSSKNGFGFKQSDLDVCMTINGLETAEGLDCVRTIEELARVLRKHSGLRNILPITTAKVPIVKFFHLRSGLEVDISLYNTLALHNTRLLSAYSAIDPRVKYLCYTMKVFTKMCDIGDASRGSLSSYAYTLMVLYFLQQRNPPVIPVLQEIYKGEKKPEIFVDGWNIYFFDQIDELPTYWSECGKNTESVGQLWLGLLRFYTEEFDFKEHVISIRRKSLLTTFKKQWTSKYIVIEDPFDLNHNLGAGLSRKMTNFIMKAFINGRRVFGIPVKGFPKDYPSKMEYFFDPDVLTEGELAPNDRCCRICGKIGHFMKDCPMRRKVRRRRDQEDALNQRYPENKEKRSKEDKEIHNKYTEREVSTKEDKPIQCTPQKAKPMRAAADLGREKILRPPVEKWKRQDDKDLREKRCFICGREGHIKKECPQFKGSSGSLSSKYMTQGKASAKRTQQES | binds | – |
| DIS3L2 (3'-5' exoribonuclease), endogenous (protein, UniProt Q8IYB7 1-885) MSHPDYRMNLRPLGTPRGVSAVAGPHDIGASPGDKKSKNRSTRGKKKSIFETYMSKEDVSEGLKRGTLIQGVLRINPKKFHEAFIPSPDGDRDIFIDGVVARNRALNGDLVVVKLLPEEHWKVVKPESNDKETEAAYESDIPEELCGHHLPQQSLKSYNDSPDVIVEAQFDGSDSEDGHGITQNVLVDGVKKLSVCVSEKGREDGDAPVTKDETTCISQDTRALSEKSLQRSAKVVYILEKKHSRAATGFLKLLADKNSELFRKYALFSPSDHRVPRIYVPLKDCPQDFVARPKDYANTLFICRIVDWKEDCNFALGQLAKSLGQAGEIEPETEGILTEYGVDFSDFSSEVLECLPQGLPWTIPPEEFSKRRDLRKDCIFTIDPSTARDLDDALSCKPLADGNFKVGVHIADVSYFVPEGSDLDKVAAERATSVYLVQKVVPMLPRLLCEELCSLNPMSDKLTFSVIWTLTPEGKILDEWFGRTIIRSCTKLSYEHAQSMIESPTEKIPAKELPPISPEHSSEEVHQAVLNLHGIAKQLRQQRFVDGALRLDQLKLAFTLDHETGLPQGCHIYEYRESNKLVEEFMLLANMAVAHKIHRAFPEQALLRRHPPPQTRMLSDLVEFCDQMGLPVDFSSAGALNKSLTQTFGDDKYSLARKEVLTNMCSRPMQMALYFCSGLLQDPAQFRHYALNVPLYTHFTSPIRRFADVLVHRLLAAALGYRERLDMAPDTLQKQADHCNDRRMASKRVQELSTSLFFAVLVKESGPLESEAMVMGILKQAFDVLVLRYGVQKRIYCNALALRSHHFQKVGKKPELTLVWEPEDMEQEPAQQVITIFSLVEVVLQAESTALKYSAILKRPGTQGHLGPEKEEEESDGEPEDSSTS | binds | – |
| KHNYN (endoribonuclease), endogenous, O15037 1-678 (protein) MPTWGARPASPDRFAVSAEAENKVREQQPHVERIFSVGVSVLPKDCPDNPHIWLQLEGPKENASRAKEYLKGLCSPELQDEIHYPPKLHCIFLGAQGFFLDCLAWSTSAHLVPRAPGSLMISGLTEAFVMAQSRVEELAERLSWDFTPGPSSGASQCTGVLRDFSALLQSPGDAHREALLQLPLAVQEELLSLVQEASSGQGPGALASWEGRSSALLGAQCQGVRAPPSDGRESLDTGSMGPGDCRGARGDTYAVEKEGGKQGGPREMDWGWKELPGEEAWEREVALRPQSVGGGARESAPLKGKALGKEEIALGGGGFCVHREPPGAHGSCHRAAQSRGASLLQRLHNGNASPPRVPSPPPAPEPPWHCGDRGDCGDRGDVGDRGDKQQGMARGRGPQWKRGARGGNLVTGTQRFKEALQDPFTLCLANVPGQPDLRHIVIDGSNVAMVHGLQHYFSSRGIAIAVQYFWDRGHRDITVFVPQWRFSKDAKVRESHFLQKLYSLSLLSLTPSRVMDGKRISSYDDRFMVKLAEETDGIIVSNDQFRDLAEESEKWMAIIRERLLPFTFVGNLFMVPDDPLGRNGPTLDEFLKKPARTQGSSKAQHPSRGFAEHGKQQQGREEEKGSGGIRKTRETERLRRQLLEVFWGQDHKVDFILQREPYCRDINQLSEALLSLNF | – | binds |
